{"source": "patent US20090203661A1", "about": "“Betulinic acid, derivatives and analogs thereof and uses therefor” (priority 2006, published 2009)", "key": {"[1]": {"system": "SK-MEL2 melanoma cancer cells", "assay": "Western blot analysis of Sp proteins in SK-MEL2 cells", "format": "cell-based, Human", "conditions": "24 hr"}, "VEGF gene promoter": {"system": "VEGF gene promoter", "assay": "VEGF promoter luciferase transactivation in LNCaP cells", "format": "cell-based, Human"}, "Panc28 cells": {"system": "Panc28 cells", "assay": "Apoptosis (PARP cleavage, Western blot) in Panc28 cells", "format": "cell-based, human", "conditions": "Panc28, 24 hr", "experimental": "Induction of KLF4 in HT-29 (FIG. 12A) and SW480 (FIG. 12B) cells. Cells were treated with different concentrations of CDODA isomers or T007 alone or in combination, and KLF4 mRNA levels were determined by real time PCR. […] KLF4 mRNA levels were not induced in SW480 cells by BA derivatives. FIGS. 12C-12D show induction of apoptosis. Panc28 (FIG. 12C) and SW480 (FIG. 12D) cells were treated for 24 hr with betulinic acid and related compounds and whole cell lysates were examined by Western blot analysis.\nSW480, HT-29, HCT-15 and Panc-28 (3×10^5) colon cancer cells were seeded in 6-well tissue culture plates in DMEM/Ham's F-12 medium containing 2.5% charcoal-stripped FBS. Protein is extracted from the cells treated either with vehicle or indicated compounds suspended for 24 hr except for caveolin-1 protein which was done for 72 hr. Samples were extracted in high salt buffer [50 mmol/L HEPES, 500 mmol/L NaCl, 1.5 mmol/L MgCl2, 1 mmol/L EGTA, 10% glycerol, and 1% Triton X-100 (pH 7.5), and 5 μL/mL protease inhibitor cocktail (Sigma-Aldrich)]. Samples were incubated at 100° C. for 2 min, separated on either 10% or 12% SDS-PAGE gels and then transferred to polyvinylidene difluoride membrane (PVDF; Bio-Rad, Hercules, Calif.). […]"}, "RKO cells": {"system": "RKO cells", "assay": "miR-27a and ZBTB10 expression in RKO cells", "format": "cell-based"}}, "note": "At least one structure is not confirmed: it was looked up by name or label, or the drawing left a doubt."}
{"compound": "C=C(C)[C@@H]1CC[C@]2(C(=O)O)CC[C@]3(C)[C@H](CC[C@@H]4[C@@]5(C)CC[C@H](O)C(C)(C)[C@@H]5CC[C@]43C)[C@@H]12", "note": "[betulinic acid, Betulinic acid]", "values": [{"measurement": "expression of Sp1, Sp3 and Sp4 proteins", "setting": "[1]", "result": "decreased expression"}, {"measurement": "luciferase activity, pVEGF1 and pVEGF2 constructs", "setting": "VEGF gene promoter", "result": "decreased luciferase activity"}, {"measurement": "effect of MG132 on decreased luciferase activity, pVEGF1 and pVEGF2", "setting": "VEGF gene promoter; cotreatment with MG132", "result": "reversed"}, {"measurement": "caspase-dependent PARP cleavage", "setting": "Panc28 cells", "result": "induced caspase-dependent PARP cleavage"}, {"measurement": "ZBTB10 expression", "setting": "RKO cells", "result": "increases ZBTB10 expression"}, {"measurement": "miR-27a expression", "setting": "RKO cells", "result": "decreases miR-27a"}]}
